The list shows a part of the results.
Assays:
Assay in all cases: NMR binding call after quantification (hit when 2 of 3 NMR criteria are met) (binary (1 = binding, 0 = not binding)); higher = binding
Settings in all cases: RNA concentration 10 µM; fragment concentration 200 µM; 293 K
SARS-CoV-2 5'-UTR RNA = test system: SARS-CoV-2 5'-UTR RNA
SARS-CoV-2 5_SL1 RNA = test system: SARS-CoV-2 5_SL1 RNA
SARS-CoV-2 5_SL1234 RNA = test system: SARS-CoV-2 5_SL1234 RNA
SARS-CoV-2 5_SL2+3 RNA = test system: SARS-CoV-2 5_SL2+3 RNA
SARS-CoV-2 5_SL4 RNA = test system: SARS-CoV-2 5_SL4 RNA
SARS-CoV-2 5_SL5 RNA = test system: SARS-CoV-2 5_SL5 RNA
SARS-CoV-2 5_SL5a RNA = test system: SARS-CoV-2 5_SL5a RNA
SARS-CoV-2 5_SL5b+c RNA = test system: SARS-CoV-2 5_SL5b+c RNA
SARS-CoV-2 5_SL5stem RNA = test system: SARS-CoV-2 5_SL5stem RNA
SARS-CoV-2 5_SL6 RNA = test system: SARS-CoV-2 5_SL6 RNA

Measured: NMR binding call

c1csc(-c2nc(N3CCCCC3)no2)c1
0: all assays above

CC(=O)Nc1ccccc1O
0: all assays above

CC1CN(C)CCC1Nc1cnn(C)c1 (stereo not given)
0: all assays above

CCOc1ccc(C(C)N)cc1.Cl (stereo not given)
0: all assays above

CCCc1cc(=O)oc2cc(OC(C)=O)ccc12
0: all assays above

CC(C)C(=O)N1CCN(C(C)C)CC1
0: all assays above

Cc1[nH]cnc1CN1CCc2ccccc2C1
0: all assays above

Cc1c(C(=O)NCC2CCC2)cnn1C
0: all assays above

3 successive compounds out of the list so far, quoted:
CCCc1cc(=O)oc2cc(OC(C)=O)ccc12
0: all assays above

CC(C)C(=O)N1CCN(C(C)C)CC1
0: all assays above

Cc1[nH]cnc1CN1CCc2ccccc2C1
0: all assays above

Additional records follow.

Oc1ncc(NCc2ccccc2)c(O)n1
0: all assays above

Cc1noc(C(N)C(C)C)n1 (stereo not given)
0: all assays above

O=C(Nc1ccc(F)cc1)Nc1cccc(O)c1
0: all assays above

Cc1cc(C)nc(Nc2ccccc2)n1
0: all assays above

O=C(COc1ccccc1)NC1CCCCC1
0: all assays above

— the supplement of paper PMC8426693
